Results are given in words; binding and its absence hold for the method and conditions named. For some assays here: In cells and extracts the contact can be indirect. Some binding calls cover weakened binding; strength is not graded here. For some assays here: Tags and fused reporters may be left off the sequences shown. One block for each binder: values may come before it.
Columns and labels:
[1] = molecular target: T1, YFP-tagged UVR8 (35S::YFP–UVR8 in uvr8-6) (Arabidopsis thaliana) (UniProt Q9FN03); assay: co-IP
T1 sequence: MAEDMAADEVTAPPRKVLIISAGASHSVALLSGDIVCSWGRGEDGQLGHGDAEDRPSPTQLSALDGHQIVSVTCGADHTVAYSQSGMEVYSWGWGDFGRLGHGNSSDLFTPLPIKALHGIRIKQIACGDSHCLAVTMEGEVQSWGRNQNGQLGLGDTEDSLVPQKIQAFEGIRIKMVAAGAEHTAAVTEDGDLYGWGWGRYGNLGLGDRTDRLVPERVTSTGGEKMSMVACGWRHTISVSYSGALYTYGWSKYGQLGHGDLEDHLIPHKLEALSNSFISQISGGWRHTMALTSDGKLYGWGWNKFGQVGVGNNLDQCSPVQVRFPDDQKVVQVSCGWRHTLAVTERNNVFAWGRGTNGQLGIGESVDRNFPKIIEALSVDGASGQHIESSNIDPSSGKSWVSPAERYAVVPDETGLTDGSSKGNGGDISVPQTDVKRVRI

[2] = molecular target: T2, COP1 in the co-immunoprecipitation with HOS1 (Supplementary Fig. 4,5) (Arabidopsis thaliana) (UniProt P43254); assay: co-IP
T2 sequence: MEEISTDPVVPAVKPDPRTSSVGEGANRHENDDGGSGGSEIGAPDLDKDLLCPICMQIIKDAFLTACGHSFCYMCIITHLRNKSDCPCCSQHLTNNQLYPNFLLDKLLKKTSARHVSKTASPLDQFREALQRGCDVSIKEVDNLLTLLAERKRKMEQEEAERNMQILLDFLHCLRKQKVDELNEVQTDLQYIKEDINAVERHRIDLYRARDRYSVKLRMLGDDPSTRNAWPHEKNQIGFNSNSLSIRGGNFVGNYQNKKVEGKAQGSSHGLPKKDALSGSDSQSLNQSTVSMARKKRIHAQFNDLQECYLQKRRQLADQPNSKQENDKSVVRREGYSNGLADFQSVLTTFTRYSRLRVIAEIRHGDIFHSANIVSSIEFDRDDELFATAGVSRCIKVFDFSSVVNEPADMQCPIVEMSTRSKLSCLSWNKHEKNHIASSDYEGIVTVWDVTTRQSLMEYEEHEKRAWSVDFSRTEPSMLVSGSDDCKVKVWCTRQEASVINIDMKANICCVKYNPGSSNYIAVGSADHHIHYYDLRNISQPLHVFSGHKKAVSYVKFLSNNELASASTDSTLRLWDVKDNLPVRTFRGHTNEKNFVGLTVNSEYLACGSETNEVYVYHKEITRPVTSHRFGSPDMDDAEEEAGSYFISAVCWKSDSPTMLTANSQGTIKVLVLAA

[3] = molecular target: T3, HY5 in the co-immunoprecipitation with HOS1 (Supplementary Fig. 4,5) (Arabidopsis thaliana) (UniProt O24646); assay: co-IP
T3 sequence: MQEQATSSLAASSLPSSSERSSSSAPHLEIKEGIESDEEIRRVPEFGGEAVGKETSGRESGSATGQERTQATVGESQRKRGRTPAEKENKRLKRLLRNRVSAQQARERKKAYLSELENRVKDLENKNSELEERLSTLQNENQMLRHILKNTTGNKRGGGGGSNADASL

[4] = molecular target: T4, CONSTITUTIVE PHOTOMORPHOGENIC 1 (COP1), yeast two-hybrid fusion (Arabidopsis thaliana) (UniProt P43254); assay: two-hybrid
T4 sequence: T2 sequence

[5] = molecular target: T5, ELONGATED HYPOCOTYL 5 (HY5), yeast two-hybrid fusion (Arabidopsis thaliana) (UniProt O24646); assay: two-hybrid
T5 sequence: T3 sequence

binding [1]: binds
B1: HOS1, endogenous in Arabidopsis seedlings (protein, UniProt Q84JU6 1-927)
chain: MDTREINGFASAARSISLPTQPNYSSKPVQEALKHLASINLRELCNEAKVERCRATRDLASCGRFVNYVLNPCGHASLCTECCQRCDVCPICRSTLPKFGDRLRLRLYYECVEAGLISRTHEEASQDSDEDEHQLAADVHRLYSLFDVAMNNNLISVVCHYITNVCMDETAVSSDPVIAFLLDEVVVKDWVKRTFRSTLAELQEIYNLETKEMQAWLDKLLRCSKQVAGICSVLEVMESAFKGSVSPQLQDVQTLRENIGKTKQHLDIMVWCIRHGFLDDVRSRYSNFTSWNALVGERKSNAVKRAWPDAVDQSSDCSVQSASLFIEDALENLEREPEYSQEIGADLEVGRLQKDKRSFLRSKIEGTSGSYPFENLRTAADMLFLHGGSDLVVAKQAIFLYYLFDRHWTTPEKYWKHTIDDFAATFGITRHSLLESFVFYLLDDHSEEALQEACRILPEICGPETYPKVAQVLLERDNPETALMVLRWSGRDGVSELVSIGEAVTALRVRVECGLLSEAFTYQRTLCLKVKENNLKNGAVKHASDDLDIWSWTEWMEILVNEFCCLSIRRNLVDRIIELPWNPDEEKYLHRCLLDSATDDPSSAVGSLLVVFYLQRYRYIQAYQVDLRLQKIEEAFVSDNQIGEEVMFRMRSQSHWRKELVDRAIDILPVIQQQQVRSGQFSEMEDASEGAKKSDLPDAPDMITSSVPFATTNSVFLQSANNARAREPVANNGSPFQPGHMIGNASHDLSHGRLFTNANRGQKSEVRSVTKNLKFGEMSTPFKDLNRARGNSQLQGKRTEESSPEVNVDRYIENNMSSPYLRRITANNPVTVKSSSNHLNGSSQKPESTFFGTRMQPDKDNFVDLDDPMDMSSSLKDNNNNVLATESRNNSGGLRWRSDETSDDEDELTSFGSMPVKGRRRRRFAAR

binding [2]: no binding | binding [3]: no binding
B2: HOS1 in the co-immunoprecipitation with HY5 and COP1 (Supplementary Fig. 4,5) (protein, UniProt Q84JU6 1-927)
chain: B1 chain

binding [4]: no binding | binding [5]: no binding
B3: HIGH EXPRESSION OF OSMOTICALLY RESPONSIVE GENES 1 (HOS1), yeast two-hybrid fusion (protein, UniProt Q84JU6 1-927)
chain: B1 chain
